# Assay results reported in the supplement of paper PMC12819154, “High-throughput peptide-centric local stability assay extends protein–ligand identification to membrane proteins, tissues and bacteria” (Nature Structural & Molecular Biology, 2025).
# Sequences of proteins named here, by UniProt entry; tags and fusion partners are left off. A change or cut given only in a name is not applied to a line headed by its entry.
# UniProt Q76N89: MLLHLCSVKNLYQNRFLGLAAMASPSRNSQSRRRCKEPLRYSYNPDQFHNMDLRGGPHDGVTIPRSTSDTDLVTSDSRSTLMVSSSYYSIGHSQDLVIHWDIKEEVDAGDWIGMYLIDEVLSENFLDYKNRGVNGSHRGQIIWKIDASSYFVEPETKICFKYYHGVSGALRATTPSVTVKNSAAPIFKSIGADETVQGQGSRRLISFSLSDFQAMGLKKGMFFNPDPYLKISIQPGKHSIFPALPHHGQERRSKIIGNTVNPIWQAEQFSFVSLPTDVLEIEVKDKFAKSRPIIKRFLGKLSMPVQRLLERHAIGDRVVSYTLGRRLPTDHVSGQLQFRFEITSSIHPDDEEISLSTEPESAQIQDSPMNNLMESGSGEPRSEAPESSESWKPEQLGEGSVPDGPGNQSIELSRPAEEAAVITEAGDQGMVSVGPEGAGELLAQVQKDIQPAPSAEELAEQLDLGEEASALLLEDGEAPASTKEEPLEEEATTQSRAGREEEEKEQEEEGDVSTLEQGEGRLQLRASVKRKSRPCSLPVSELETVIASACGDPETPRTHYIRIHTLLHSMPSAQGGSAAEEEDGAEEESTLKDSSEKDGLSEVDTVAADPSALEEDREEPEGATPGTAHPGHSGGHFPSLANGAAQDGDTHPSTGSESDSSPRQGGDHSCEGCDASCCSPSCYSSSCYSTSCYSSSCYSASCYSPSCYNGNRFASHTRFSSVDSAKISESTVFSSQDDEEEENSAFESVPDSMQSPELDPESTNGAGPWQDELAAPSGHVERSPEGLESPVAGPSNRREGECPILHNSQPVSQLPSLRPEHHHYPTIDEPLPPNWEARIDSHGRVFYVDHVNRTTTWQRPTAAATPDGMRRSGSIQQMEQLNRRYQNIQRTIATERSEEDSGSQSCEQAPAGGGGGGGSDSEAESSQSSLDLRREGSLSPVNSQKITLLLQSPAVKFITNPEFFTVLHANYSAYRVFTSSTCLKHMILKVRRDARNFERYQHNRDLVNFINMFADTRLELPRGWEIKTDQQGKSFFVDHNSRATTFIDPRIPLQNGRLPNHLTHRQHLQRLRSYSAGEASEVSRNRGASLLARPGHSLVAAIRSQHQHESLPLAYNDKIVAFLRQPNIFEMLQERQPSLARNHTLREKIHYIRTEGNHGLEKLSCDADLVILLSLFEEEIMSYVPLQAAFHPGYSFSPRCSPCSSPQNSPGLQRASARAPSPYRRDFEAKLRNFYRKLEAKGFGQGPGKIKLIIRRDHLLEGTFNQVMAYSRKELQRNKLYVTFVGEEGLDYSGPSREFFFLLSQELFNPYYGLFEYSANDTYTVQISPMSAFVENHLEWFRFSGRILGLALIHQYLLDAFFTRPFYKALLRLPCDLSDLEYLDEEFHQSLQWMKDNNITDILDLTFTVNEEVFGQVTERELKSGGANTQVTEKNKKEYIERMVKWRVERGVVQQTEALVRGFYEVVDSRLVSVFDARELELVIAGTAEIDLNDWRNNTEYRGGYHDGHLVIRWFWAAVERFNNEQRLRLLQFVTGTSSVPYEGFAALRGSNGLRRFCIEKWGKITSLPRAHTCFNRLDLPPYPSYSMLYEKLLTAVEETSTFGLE
# UniProt Q86SX6: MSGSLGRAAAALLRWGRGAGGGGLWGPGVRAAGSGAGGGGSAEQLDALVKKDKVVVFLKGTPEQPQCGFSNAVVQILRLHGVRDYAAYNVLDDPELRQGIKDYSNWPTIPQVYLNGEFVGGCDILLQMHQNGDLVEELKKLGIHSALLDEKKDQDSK
# UniProt Q7L2K0: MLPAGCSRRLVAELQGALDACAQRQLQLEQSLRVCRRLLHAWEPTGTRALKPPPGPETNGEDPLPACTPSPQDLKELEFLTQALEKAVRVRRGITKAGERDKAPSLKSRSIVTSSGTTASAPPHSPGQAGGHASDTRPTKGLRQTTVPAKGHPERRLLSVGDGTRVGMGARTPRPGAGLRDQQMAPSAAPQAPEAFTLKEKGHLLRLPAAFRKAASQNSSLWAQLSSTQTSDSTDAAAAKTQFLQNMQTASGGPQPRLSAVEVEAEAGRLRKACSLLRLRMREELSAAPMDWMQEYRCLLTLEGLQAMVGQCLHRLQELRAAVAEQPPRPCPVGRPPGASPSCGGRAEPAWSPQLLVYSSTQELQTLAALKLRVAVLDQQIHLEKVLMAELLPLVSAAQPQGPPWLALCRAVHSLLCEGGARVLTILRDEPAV
# UniProt Q7Z422: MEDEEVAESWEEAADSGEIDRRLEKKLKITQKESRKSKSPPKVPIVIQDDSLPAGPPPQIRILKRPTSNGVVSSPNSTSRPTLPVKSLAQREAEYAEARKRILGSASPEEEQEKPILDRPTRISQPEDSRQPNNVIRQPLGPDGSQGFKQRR
# UniProt Q7LBR1: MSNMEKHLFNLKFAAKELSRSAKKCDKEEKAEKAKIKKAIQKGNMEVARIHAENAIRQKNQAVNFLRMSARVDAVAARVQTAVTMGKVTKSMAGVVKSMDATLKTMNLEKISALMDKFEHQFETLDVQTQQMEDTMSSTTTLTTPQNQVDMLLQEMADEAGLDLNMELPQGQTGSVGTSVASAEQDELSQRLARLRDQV
# UniProt Q6ZNX1: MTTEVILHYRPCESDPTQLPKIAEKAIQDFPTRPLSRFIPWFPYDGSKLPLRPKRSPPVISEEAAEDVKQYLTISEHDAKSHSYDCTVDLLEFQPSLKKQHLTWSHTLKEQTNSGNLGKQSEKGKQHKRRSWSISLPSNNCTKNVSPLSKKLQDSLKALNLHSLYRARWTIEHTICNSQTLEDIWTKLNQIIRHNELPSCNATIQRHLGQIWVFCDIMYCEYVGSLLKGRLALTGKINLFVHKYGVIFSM
# UniProt Q709C8: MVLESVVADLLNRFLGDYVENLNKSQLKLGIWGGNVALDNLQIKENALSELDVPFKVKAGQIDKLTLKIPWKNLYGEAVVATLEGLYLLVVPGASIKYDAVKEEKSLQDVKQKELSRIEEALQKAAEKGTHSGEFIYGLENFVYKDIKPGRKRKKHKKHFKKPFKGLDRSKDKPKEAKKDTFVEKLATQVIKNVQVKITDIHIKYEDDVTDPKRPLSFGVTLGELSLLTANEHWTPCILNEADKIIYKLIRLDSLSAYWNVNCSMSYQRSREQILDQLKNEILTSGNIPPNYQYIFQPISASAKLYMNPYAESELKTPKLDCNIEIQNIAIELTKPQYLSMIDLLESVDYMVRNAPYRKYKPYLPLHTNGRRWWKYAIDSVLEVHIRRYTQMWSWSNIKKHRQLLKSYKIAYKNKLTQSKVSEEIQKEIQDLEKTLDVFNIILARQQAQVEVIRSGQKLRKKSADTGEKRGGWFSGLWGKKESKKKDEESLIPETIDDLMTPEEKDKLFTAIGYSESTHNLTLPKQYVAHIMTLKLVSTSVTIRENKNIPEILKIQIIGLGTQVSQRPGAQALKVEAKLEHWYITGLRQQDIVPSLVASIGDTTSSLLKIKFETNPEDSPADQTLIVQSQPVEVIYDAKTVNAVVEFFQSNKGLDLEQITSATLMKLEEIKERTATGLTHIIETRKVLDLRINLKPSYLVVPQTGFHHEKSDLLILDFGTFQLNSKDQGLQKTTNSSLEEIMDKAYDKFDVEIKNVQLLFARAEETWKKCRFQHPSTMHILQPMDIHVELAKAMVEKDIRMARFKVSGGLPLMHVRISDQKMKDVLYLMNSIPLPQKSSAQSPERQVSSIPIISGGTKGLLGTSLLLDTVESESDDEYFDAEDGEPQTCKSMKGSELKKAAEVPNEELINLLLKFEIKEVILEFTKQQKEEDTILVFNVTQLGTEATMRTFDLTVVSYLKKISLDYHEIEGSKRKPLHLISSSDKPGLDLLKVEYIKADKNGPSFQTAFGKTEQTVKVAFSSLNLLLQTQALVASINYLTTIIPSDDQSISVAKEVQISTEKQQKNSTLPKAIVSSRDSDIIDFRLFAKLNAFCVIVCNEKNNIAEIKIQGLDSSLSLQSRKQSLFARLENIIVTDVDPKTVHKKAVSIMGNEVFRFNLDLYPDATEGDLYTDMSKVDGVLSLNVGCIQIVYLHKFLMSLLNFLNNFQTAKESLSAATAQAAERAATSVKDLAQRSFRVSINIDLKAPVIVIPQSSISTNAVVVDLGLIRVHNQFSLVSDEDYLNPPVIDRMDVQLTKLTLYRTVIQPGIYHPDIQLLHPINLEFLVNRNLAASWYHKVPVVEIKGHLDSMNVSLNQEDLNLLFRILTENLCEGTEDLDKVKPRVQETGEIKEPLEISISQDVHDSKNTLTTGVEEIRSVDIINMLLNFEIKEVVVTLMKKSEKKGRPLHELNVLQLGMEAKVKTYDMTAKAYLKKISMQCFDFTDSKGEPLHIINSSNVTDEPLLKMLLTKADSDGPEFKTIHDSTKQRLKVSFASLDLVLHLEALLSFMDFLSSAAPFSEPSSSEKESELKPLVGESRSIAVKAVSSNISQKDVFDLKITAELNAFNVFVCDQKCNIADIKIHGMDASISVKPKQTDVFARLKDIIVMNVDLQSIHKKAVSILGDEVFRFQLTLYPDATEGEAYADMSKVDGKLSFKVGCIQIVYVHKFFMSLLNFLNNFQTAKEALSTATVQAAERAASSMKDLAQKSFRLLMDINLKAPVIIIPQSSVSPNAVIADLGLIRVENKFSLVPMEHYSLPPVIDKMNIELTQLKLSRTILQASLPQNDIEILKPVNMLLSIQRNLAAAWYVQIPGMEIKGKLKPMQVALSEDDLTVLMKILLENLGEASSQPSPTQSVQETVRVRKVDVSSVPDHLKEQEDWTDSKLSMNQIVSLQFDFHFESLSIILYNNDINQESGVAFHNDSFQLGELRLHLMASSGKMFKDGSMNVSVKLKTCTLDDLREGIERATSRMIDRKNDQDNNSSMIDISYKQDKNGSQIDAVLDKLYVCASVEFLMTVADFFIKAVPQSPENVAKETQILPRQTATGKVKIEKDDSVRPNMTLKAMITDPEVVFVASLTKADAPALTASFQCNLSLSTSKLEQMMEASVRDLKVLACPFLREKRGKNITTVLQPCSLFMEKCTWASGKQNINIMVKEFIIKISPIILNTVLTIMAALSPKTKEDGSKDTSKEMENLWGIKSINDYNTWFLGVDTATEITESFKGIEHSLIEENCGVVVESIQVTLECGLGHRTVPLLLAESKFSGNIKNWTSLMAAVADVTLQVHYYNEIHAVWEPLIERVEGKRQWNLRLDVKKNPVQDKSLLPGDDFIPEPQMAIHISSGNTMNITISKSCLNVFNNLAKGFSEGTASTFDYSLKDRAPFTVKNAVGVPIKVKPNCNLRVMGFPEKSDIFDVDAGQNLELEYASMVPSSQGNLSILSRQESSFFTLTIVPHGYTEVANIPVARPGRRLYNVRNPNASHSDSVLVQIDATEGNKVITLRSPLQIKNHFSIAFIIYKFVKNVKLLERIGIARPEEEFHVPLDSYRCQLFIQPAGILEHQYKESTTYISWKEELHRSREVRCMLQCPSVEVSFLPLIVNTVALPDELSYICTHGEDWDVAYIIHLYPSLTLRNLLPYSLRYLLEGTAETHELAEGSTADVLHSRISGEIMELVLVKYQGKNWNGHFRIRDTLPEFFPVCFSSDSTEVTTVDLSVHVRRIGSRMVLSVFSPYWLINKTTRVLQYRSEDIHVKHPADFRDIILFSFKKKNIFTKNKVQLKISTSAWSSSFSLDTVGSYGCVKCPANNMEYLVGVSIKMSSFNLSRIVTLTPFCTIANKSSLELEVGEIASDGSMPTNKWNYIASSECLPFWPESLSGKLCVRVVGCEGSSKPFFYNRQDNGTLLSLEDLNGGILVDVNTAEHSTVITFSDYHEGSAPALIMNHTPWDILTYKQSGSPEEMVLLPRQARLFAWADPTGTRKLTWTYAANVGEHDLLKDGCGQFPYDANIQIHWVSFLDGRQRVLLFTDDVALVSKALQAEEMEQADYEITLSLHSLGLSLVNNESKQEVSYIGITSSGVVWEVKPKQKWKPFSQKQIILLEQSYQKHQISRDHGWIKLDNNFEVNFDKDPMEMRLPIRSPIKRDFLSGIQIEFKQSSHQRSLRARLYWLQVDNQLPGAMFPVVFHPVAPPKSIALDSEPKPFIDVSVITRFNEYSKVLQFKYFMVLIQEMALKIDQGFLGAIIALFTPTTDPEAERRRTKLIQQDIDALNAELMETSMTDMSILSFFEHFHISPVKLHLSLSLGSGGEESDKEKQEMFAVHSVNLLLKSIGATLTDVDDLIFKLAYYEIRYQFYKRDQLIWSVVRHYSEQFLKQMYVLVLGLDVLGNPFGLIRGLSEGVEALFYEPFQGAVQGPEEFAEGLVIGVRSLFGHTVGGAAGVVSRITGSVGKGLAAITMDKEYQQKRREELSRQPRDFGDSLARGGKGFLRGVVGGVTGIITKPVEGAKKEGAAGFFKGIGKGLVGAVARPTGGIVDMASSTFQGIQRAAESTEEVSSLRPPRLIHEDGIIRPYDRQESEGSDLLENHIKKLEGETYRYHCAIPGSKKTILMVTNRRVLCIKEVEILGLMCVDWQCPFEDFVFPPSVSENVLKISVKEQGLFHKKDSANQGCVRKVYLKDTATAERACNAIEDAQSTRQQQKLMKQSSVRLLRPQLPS
# The list shows a part of the results. Most values lie at the level of the controls, where differences are scatter.
# Compound: Cc1nc(Nc2ncc(C(=O)Nc3c(C)cccc3Cl)s2)cc(N2CCN(CCO)CC2)n1 [dasatinib]
# Assay: log2 fold change of tryptic peptide abundance, ligand vs vehicle (limited proteolysis) (log2 ratio); higher = more trypsin-susceptible (destabilized)
# Conditions: ligand concentration: 5 uM; sample: K562 cleared lysate
row,Target,log2 fold change
1,"UniProt Q7Z7F0 (peptide sequence: KLCENLLQTVHAEYSR, peptide start residue: 310)",0.865
2,"DET1 (peptide sequence: FEIQAGLLGRPINHTVR, peptide start residue: 499) (UniProt Q7L5Y6)",-0.605
3,"DCXR (peptide sequence: GTVQALHATGAR, peptide start residue: 22) (UniProt Q7Z4W1)",0.272
4,"UniProt Q7L5D6 (peptide sequence: GDYYEAHQMYR, peptide start residue: 37)",-0.202
5,"HEATR3 (peptide sequence: LQHPSAEVRECACAGLAR, peptide start residue: 47) (UniProt Q7Z4Q2)",0.338
6,"GPRIN1 (peptide sequence: KVDPVSSDKVDPVFPR, peptide start residue: 240) (UniProt Q7Z2K8)",0.17
7,"DENND4A (peptide sequence: ACDDKLNKK, peptide start residue: 1231) (UniProt Q7Z401)",1.06
8,"UniProt Q6ZSR9 (peptide sequence: GLPLYPDPSR, peptide start residue: 5)",-0.149
9,"ZFYVE16 (peptide sequence: VFCGVCCNRK, peptide start residue: 775) (UniProt Q7Z3T8)",0.617
10,"BCL9L (peptide sequence: YAMPSSTPLYHNAIK, peptide start residue: 1094) (UniProt Q86UU0)",-0.135
11,"UniProt Q6YP21 (peptide sequence: LGWSIGPNHLIK, peptide start residue: 289)",0.308
12,"ASRGL1 (peptide sequence: AATVGYGILR, peptide start residue: 30) (UniProt Q7L266)",-0.0109
13,"CYFIP1 (peptide sequence: HTVYAALQDFSQVTLREPLR, peptide start residue: 478) (UniProt Q7L576)",0.649
14,"UniProt Q76N89 (peptide sequence: AGREEEEK, peptide start residue: 497)",-0.124
15,"GLRX5 (peptide sequence: DKVVVFLK, peptide start residue: 52) (UniProt Q86SX6)",0.0449
16,"UniProt Q71UM5 (peptide sequence: DLLHPSLEEEKK, peptide start residue: 6)",0.0228
17,"NBEAL2 (peptide sequence: VLDQDTDAIAVHVVR, peptide start residue: 372) (UniProt Q6ZNJ1)",-0.232
18,"CXXC5 (peptide sequence: SGIISEPLNK, peptide start residue: 62) (UniProt Q7LFL8)",0.0869
19,"UniProt Q7Z3J2 (peptide sequence: LNQLSVNLWHLAQR, peptide start residue: 909)",-0.249

# 2 neighbouring records already listed:
row,Target,log2 fold change
4,"UniProt Q7L5D6 (peptide sequence: GDYYEAHQMYR, peptide start residue: 37)",-0.202
5,"HEATR3 (peptide sequence: LQHPSAEVRECACAGLAR, peptide start residue: 47) (UniProt Q7Z4Q2)",0.338

# Additional results.

row,Target,log2 fold change
1,"HUWE1 (peptide sequence: RSSLLTEK, peptide start residue: 3445) (UniProt Q7Z6Z7)",-0.346
2,"ZC3HAV1 (peptide sequence: VDDHDSEEICLDHLCK, peptide start residue: 504) (UniProt Q7Z2W4)",-0.52
3,"UniProt Q86UL8 (peptide sequence: TTSWLDPR, peptide start residue: 325)",0.207
4,"UBE3B (peptide sequence: NILRPVGGK, peptide start residue: 442) (UniProt Q7Z3V4)",0.165
5,"TEDC2 (peptide sequence: LLSVGDGTR, peptide start residue: 157) (UniProt Q7L2K0)",-0.278
6,"MPRIP (peptide sequence: MEVDRSPGLPMSDLK, peptide start residue: 614) (UniProt Q6WCQ1)",-0.254
7,"UniProt Q7RTV0 (peptide sequence: CVICDSYVRPCTLVR, peptide start residue: 30)",-0.183
8,"UniProt Q7Z422 (peptide sequence: ISQPEDSR, peptide start residue: 123)",0.0794
9,"MACC1 (peptide sequence: MAWLSQR, peptide start residue: 180) (UniProt Q6ZN28)",-0.372
10,"UniProt Q7Z7A3 (peptide sequence: RGLDEEATPGTPGDPARPPASK, peptide start residue: 322)",0.181
11,"CPEB2 (peptide sequence: EFHKPLVK, peptide start residue: 708) (UniProt Q7Z5Q1)",-0.124
12,"RAI1 (peptide sequence: TPAFSPFVR, peptide start residue: 1592) (UniProt Q7Z5J4)",-0.297
13,"CHMP1B (peptide sequence: VQTAVTMGK, peptide start residue: 79) (UniProt Q7LBR1)",0.0593
14,"HDDC2 (peptide sequence: MAVMAMVIKDDR, peptide start residue: 53) (UniProt Q7Z4H3)",0.153
15,"UniProt Q6ZNX1 (peptide sequence: AIQDFPTRPLSR, peptide start residue: 26)",0.0962
16,"DHRS13 (peptide sequence: LANVLFAR, peptide start residue: 202) (UniProt Q6UX07)",-0.206
17,"UniProt Q86SX3 (peptide sequence: AGGCGRGPEWSAAR, peptide start residue: 387)",-0.354
18,"VPS13C (peptide sequence: DFGDSLAR, peptide start residue: 3512) (UniProt Q709C8)",0.176
19,"UniProt Q7Z2Z2 (peptide sequence: YSPLEFLR, peptide start residue: 529)",-0.186
